PubChem BioAssay AID1259415 (National Center for Advancing Translational Sciences (NCATS), 2018)
The campaign covered roughly 410,000 compounds. About 18,000 (4.4%) were called active. The inconclusive results got no clear call from the source; some entries with a clear call stand among them for comparison. No stated cut-off is given here; in the data, active means activity change below about -60%; inconclusive means no clear call, values can overlap the other calls; inactive means above about -39%.

assay: qHTS Assay for inhibitors of the human cytomegalovirus (HCMV); settings: HFF cells, HCMV-luciferase reporter, 72 h; at 57.5 µM; hits give low values
Summary of the method: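 Steps: HFFs plated, 16 h 37C; compounds added; HCMV-luciferase added to MOI 1 PFU/cell; 72 h 37C; OneGlo reagent, 5 min room temperature; luminescence read, normalized to controls.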
On the % scale 0 is the no-effect control and ±100 the full control effect.

| Structure (SMILES) | activity change, negative = inhibition |
| --- | --- |
| CC(C)Cn1c(N)c(C(=O)COC(=O)CCc2nc3ccccc3s2)c(=O)n(C)c1=O | inconclusive: -54.6% |
| N#CCOC(=O)C1CSC2(c3ccc(Br)cc3)CCC(=O)N12 (stereo not given) | inconclusive: -46.4% |
| Cc1ccc(C)c(CN2C(=O)c3ccccc3S(=O)(=O)c3ccc(C(=O)N4CCCCC4)cc32)c1 | inactive: -0.292% |
| Cc1ccc(Cn2cc(CN3CC(N4CCN(Cc5cccc(C)c5)CC4)CS3(=O)=O)nn2)cc1 (stereo not given) | inconclusive: -40.5% |
| CCOCCCNC(=O)c1ccc(CN2CCc3ccccc3C2)cc1 | inactive: -21.4% |
| CCn1c(=O)c(C(=O)NNC(=O)c2ccccc2Cl)c(O)c2ccccc21 | inconclusive: -56.3% |
| COc1ccc(OC)c(NC(=O)c2cccc(NC(=O)c3ccccc3)c2)c1 | inconclusive: -44.8% |
| Cc1ccc(CNC(=O)C2CCN(S(=O)(=O)c3c(C)noc3/C=C/N(C)C)CC2)cc1 | inactive: -17.3% |
| COc1ccc(C(=O)NC(=S)Nc2ccc3c4c(cccc24)CC3)cc1OC | inactive: -4.21% |
| CCc1nc2c(OCc3cc(Cl)cc(Cl)c3)cccn2c1N(C)C(=O)c1ccccc1F | inconclusive: -40.5% |
| Cn1c(=O)n(C/C=C/c2ccccc2)c(=O)c2c1nc1n2CCCN1Cc1ccccc1 | inactive: 13.5% |
| O=[N+]([O-])c1ccc(-c2nc(=S)c3c(o2)CCCC3)cc1 | active: -101% |
| COc1cc(C2CC(=O)Nc3cc4c(cc32)OCCO4)cc(Br)c1OC (stereo not given) | active: -80.6% |
| CCC(C)(C)NC(=O)C(c1cccc(OC)c1OC)N(Cc1ccc(OC)cc1)C(=O)CCC(=O)Nc1cc(C)on1 (stereo not given) | inactive: -1.9% |
| COc1ccc(Cn2c(=O)c3oc4ccccc4c3n(Cc3ccc(F)cc3)c2=O)cc1 | inactive: -18.6% |
| O=c1c(=Nc2ccccc2O)c(=O)c2ccccc12 | inconclusive: -56.7% |
| COc1ccc(Br)cc1C(=O)NC(=S)Nc1cc(-c2nc3ccccc3[nH]2)ccc1C | inconclusive: -45% |
| CCOC(=O)C1CC(c2ccc(Cl)cc2)=NNC1=O (stereo not given) | inconclusive: -40.3% |
| CC(=O)Nc1ccc(-c2cc(N)n(-c3ccccc3)n2)cc1 | inactive: 172% |
| CC1CCN(C(=S)NC(=O)c2ccco2)CC1 | active: -68.5% |
| COc1ccc(C(=O)/C=C/c2ccc(OC)c(O)c2)c(F)c1 | inconclusive: -43.7% |
| COCCn1c(SCC(=O)Nc2cc(C)on2)nc2ccccc21 | inconclusive: -45.5% |

As a working copy, part of the list above.

| Structure (SMILES) | activity change, negative = inhibition |
| --- | --- |
| Cc1ccc(CNC(=O)C2CCN(S(=O)(=O)c3c(C)noc3/C=C/N(C)C)CC2)cc1 | inactive: -17.3% |
| COc1ccc(C(=O)NC(=S)Nc2ccc3c4c(cccc24)CC3)cc1OC | inactive: -4.21% |
| CCc1nc2c(OCc3cc(Cl)cc(Cl)c3)cccn2c1N(C)C(=O)c1ccccc1F | inconclusive: -40.5% |
| Cn1c(=O)n(C/C=C/c2ccccc2)c(=O)c2c1nc1n2CCCN1Cc1ccccc1 | inactive: 13.5% |
| O=[N+]([O-])c1ccc(-c2nc(=S)c3c(o2)CCCC3)cc1 | active: -101% |

(next part)

| Structure (SMILES) | activity change, negative = inhibition |
| --- | --- |
| CCC(C)(C)NC(=O)/C=C/c1ccc(OC)c(S(=O)(=O)N2CCOCC2)c1 | inconclusive: -47.8% |
| COc1cc(-c2ccc(Nc3ccccc3C(=O)O)c(OC)c2)ccc1Nc1ccccc1C(=O)O | active: -67.7% |
| O=C(Nc1cccc(-c2cccc(F)c2)c1)C1CCN(C2CCC2)CC1 | inconclusive: -41.4% |
| COC(=O)[C@@]1(Cc2ccc(F)cc2)[C@H]2c3cc(C(=O)N(C)C)n(C)c3C[C@H]2CN1C(=O)c1ccccc1 | inconclusive: -41% |
| Cc1cccc(NC(=O)c2ccc(S(=O)(=O)NCc3cccnc3)cc2)c1 | inconclusive: -40.9% |
| COc1cccc(-n2c(-c3ccco3)nc3nc4ccccc4nc32)c1 | inconclusive: -52.3% |
| CCCc1cc(NCCCn2ccnc2)n2nc(C)c(-c3ccccc3)c2n1 | inconclusive: -45% |
| CCOc1ccc(CCNC(=O)Cn2nc(-c3ccc(C)cc3)ccc2=O)cc1OCC | inconclusive: -58.4% |
| CC(C)CN1CN(Cc2ccccc2)CNC1=S | inconclusive: -46.2% |
| COc1cc2cc(CN(Cc3cccs3)C(=S)Nc3ccc(C)cc3)c(=O)[nH]c2cc1OC | active: -69.2% |
| CCN(C(=O)C(C)N1C(=O)/C(=C/c2cccs2)SC1=S)C1CCS(=O)(=O)C1 (stereo not given) | active: -63.5% |
| Cc1ccc(-c2cc(NC(=O)c3ccccc3)on2)cc1 | inactive: 20.7% |
| COc1ccc(CNC(=O)c2ccc(CS(=O)(=O)c3ccccc3OC)o2)cc1 | inactive: -22.6% |
| CC(=O)N1CC(C)Sc2ccc(S(=O)(=O)NCc3ccc(F)cc3)cc21 (stereo not given) | inconclusive: -51.6% |
| COc1ccc(CSc2ccc(-c3nc4ccccn4c3NCc3ccccc3)cc2OC)cc1 | active: -64.8% |
| O=C(Nc1ccccc1C(=O)Nc1ccccc1)c1cccs1 | inconclusive: -40% |
| COc1ccccc1CC(=O)Nc1ccc(S(=O)(=O)N2CCCC2)cc1 | inactive: -14.7% |
| O=C(Nc1ccc(C(=O)N2CCCC2)cc1)c1cccc(C(F)(F)F)c1 | inconclusive: -45.8% |
| CCCNC(=O)N1CCC2(CC1)CN(C(=O)CN1CCOCC1)[C@H](CO)c1[nH]c3cc(OC)ccc3c12 | inactive: 0.475% |
| COc1ccc(CCNC(=O)C(=O)NCC(c2ccco2)S(=O)(=O)c2ccc(F)cc2)cc1 (stereo not given) | inconclusive: -45.6% |
| COc1ccc(CN2C(=O)CC(C(=O)NCCc3ccc(S(N)(=O)=O)cc3)SC2=Nc2ccccc2)cc1 (stereo not given) | inconclusive: -46.2% |
| CN1C(=O)NC(c2cccc(F)c2)C2=C1CC(C)(C)CC2=O (stereo not given) | inactive: 28.2% |

| Structure (SMILES) | activity change, negative = inhibition |
| --- | --- |
| CC(C)C[C@H](NC(=O)OC(C)(C)C)C(=O)N[C@@H](CO)[C@H](O)[C@@H]1C[C@@H]1C(=O)NC1CCCCC1 | inconclusive: -45.5% |
| Cc1c(C(=O)Nc2cccc(Cl)c2)oc2ccc(S(=O)(=O)N(C)C3CCCCC3)cc12 | inconclusive: -48.3% |
| O=C(CCl)N1N=C(c2ccco2)CC1c1ccco1 (stereo not given) | active: -72.1% |
| COC(=O)CCCCCNc1ccc(C(=O)OC)cc1N | inconclusive: -54.1% |
| COc1ccc(C2CCCN2C(=O)Nc2ccc(Cl)cc2)cc1OC (stereo not given) | active: -72.3% |
| CC(=O)Nc1cc(-c2ccc(Cl)cc2)nn1-c1ccccc1 | inactive: -4.07% |
| Cc1ccc(C(=O)NNC(=O)c2ccoc2C)s1 | active: -98.4% |
| COc1ccc(S(=O)(=O)Nc2ccc(-c3ccc(N4CCCC4)nn3)cc2)cc1C | inconclusive: -44.5% |
| O=C1CCSC2(C(=O)N(Cc3ccc(F)cc3)c3ccccc32)N1c1ccc(F)c(F)c1 (stereo not given) | inactive: 0% |
| CCCCOC(=O)CSC1=C(C#N)C(c2cccnc2)C(C(=O)OCC)=C(c2ccccc2)N1 (stereo not given) | inconclusive: -59.7% |
| Cc1ccccc1-n1nnnc1SCc1cc(=O)n2ccsc2n1 | inconclusive: -41.4% |
| C/C(=N/Nc1ccc([N+](=O)[O-])cc1)c1ccc(C)cc1C | active: -63% |
| CC(=O)N1c2ccc(S(=O)(=O)N3CCCC(C(=O)Nc4cccc(Cl)c4)C3)cc2CC1C (stereo not given) | active: -62.5% |
| CCOC(=O)C1(CCc2ccccc2)CCN(Cc2ccccn2)CC1 | inconclusive: -46.5% |
| O=S(=O)(c1ccc(Br)cc1Cl)N1CCN(CCO)CC1 | inconclusive: -42.3% |
| COc1ccc(S(=O)(=O)N(CC(=O)NC2CC2)Cc2ccccc2)cc1 | inconclusive: -42.2% |
| Cc1ccc(S(C)=O)cc1-n1c(=O)n(Cc2ccccc2)c(=O)c2[nH]cnc21 (stereo not given) | inconclusive: -41.7% |
| O=C(COc1ccccc1Cl)N(Cc1cccs1)C1CCS(=O)(=O)C1 (stereo not given) | inactive: -31.3% |
| COCC(=O)OC/C(O)=C(\C#N)c1nc2ccccc2[nH]1 | active: -99.2% |
| Cc1cc(NC(=O)CSc2nnc(C3CC3)n2-c2ccccc2)no1 | inconclusive: -52.9% |
| Cc1ccc(NC(=O)CN(C)C(=O)C2COc3ccccc3O2)cc1 (stereo not given) | inconclusive: -59.7% |
| O=C(CSc1nnc(CCCN2C(=O)c3cccc4cccc(c34)C2=O)n1-c1ccccc1)NCCCO | inconclusive: -57.1% |

| Structure (SMILES) | activity change, negative = inhibition |
| --- | --- |
| COC(=O)C(C)n1nnc2sc(-c3ccccc3)cc2c1=O (stereo not given) | inconclusive: -40% |
| CCOC(=O)N1CCc2c(sc3c2c(=O)n(Cc2ccccc2)c(=O)n3CC(=O)Nc2ccc(C)c(C)c2)C1 | inconclusive: -45.7% |
| O=C(C[C@@H]1C[C@H]2c3cc(NC(=O)c4cccnc4)ccc3O[C@H]2[C@H](CO)O1)NCc1ccc(Oc2ccccc2)cc1 | inconclusive: -48.1% |
| O=C(O/N=C1/CCCc2occc21)c1ccc(F)cc1 | inconclusive: -44.3% |
| CCCN(CCC)S(=O)(=O)c1ccc(C(=O)Nc2nnc(COC)o2)cc1 | inconclusive: -45.8% |
| Cn1cccc1CC(=O)NNC(=S)Nc1ccc(F)cc1 | inconclusive: -42.2% |
| O=C1CSC(=S)N1N=Cc1ccc(Cl)cc1Cl | inactive: -7.9% |
| O=C(COc1cc([N+](=O)[O-])cc2cccnc12)NCCC1=CCCCC1 | inconclusive: -41.6% |
| COc1ccc(C(=O)N/C(=C\c2cn(C)c3ccccc23)C(=O)NCCCN2CCOCC2)cc1OC | inactive: -0.143% |
| CC(Oc1cccc(NC(=O)c2cccs2)c1)C(=O)c1ccccc1 (stereo not given) | inconclusive: -52.8% |
| Cn1c(=O)c2[nH]c(Cc3cccc(O)c3)nc2n(C)c1=O | inactive: 46.8% |
| O=C(NCc1cccnc1)/C(=C\c1ccc(-c2cccc(Cl)c2)o1)S(=O)(=O)c1ccccc1 | active: -103% |
| Cc1cccc(N2CC(C(=O)Nc3cccc(S(=O)(=O)N4CCCCC4)c3)CC2=O)c1C (stereo not given) | inconclusive: -50.8% |
| COc1cccc(-n2c(C)c3c(OC)cccc(=O)c3c2C)c1 | inactive: 4.86% |
| O=C(Nc1ccc(Nc2ccccc2)cc1)Nc1ccccc1Cl | inconclusive: -53.1% |
| C(=N\N1CCN(C2c3ccccc3-c3ccccc32)CC1)/c1cccs1 | inconclusive: -56.6% |
| Cn1cc(Cl)cc(C(=O)Nc2ccccc2)c1=O | inactive: 101% |
| CCOC(=O)CC(=O)Nc1nc2ccccc2s1 | inactive: 69.5% |
| CC(NCc1ccc(S(N)(=O)=O)cc1)C(=O)Nc1cc([N+](=O)[O-])ccc1Cl (stereo not given) | inconclusive: -52% |
